PubChem BioAssay AID1259314 – Drosophila RNAi Screening Center | 2017
Aim: 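Transmembrane protein genes affecting ATP after manganese overload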 (primary screen). Cells: Drosophila S2R+ cells. Reagents: long dsRNA against Drosophila genes. Time to read-out: 5 days (4 days knock-down, then 1 day metal exposure). Conditions: manganese chloride added to 15 mM for 24 hours. Measured: 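Cellular ATP measured by luciferase light, scaled to the plate mean, averaged across replicates and z-scored over plates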. Direction: mean ATP z-score: higher = more ATP than the plate average, more viable cells under manganese. Hit rule: 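a mean ATP z-score past 1.5 in either direction is called active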. Calls: active = strong ATP change, up or down; inactive = no strong ATP change.
In all, the deposit lists about 3,100 reagents; below is a random part of them. Over the whole deposit, 289 (9.3%) got an active call. 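Active includes both higher and lower ATP than plate average; check the z-score sign for direction.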 A number with no mark means an inactive call. The numbers tell different reagents against one gene apart. Names joined by + are all predicted targets of the reagent. Reagent sequences are not shown. The record does not give: the amount of reagent.

Spase12 + CG2006 showed mean ATP z-score 1. Against CG18788, the entry reads mean ATP z-score -0.582. With knock-down of bwa (brain washing) #1, the record shows mean ATP z-score -0.275. Depletion of bwa (brain washing) #2 resulted in: mean ATP z-score 0.254. With knock-down of CG15531, the record shows mean ATP z-score 1.73 (active). ppk23 (pickpocket 23) #1 showed mean ATP z-score 0.212.

After knock-down of ppk23 (pickpocket 23) #2, the screen gave mean ATP z-score 0.265. Against Pvr (PDGF- and VEGF-receptor related) #1, the values are mean ATP z-score 0.538. Against Pvr (PDGF- and VEGF-receptor related) #2 the deposit lists mean ATP z-score 3.28 (active). Pvr (PDGF- and VEGF-receptor related) #3 scored mean ATP z-score 3.64 (active). With knock-down of Gr33a (Gustatory receptor 33a) #1 the results were mean ATP z-score -0.218. Against Gr33a (Gustatory receptor 33a) #2, the values are mean ATP z-score 0.0951.

For HisCl1 (Histamine-gated chloride channel subunit 1), the entry reads mean ATP z-score -0.769. With knock-down of Cad96Ca (Cadherin 96Ca) #1 the results were mean ATP z-score -0.491. With knock-down of Cad96Ca (Cadherin 96Ca) #2 the results were mean ATP z-score -0.181. After knock-down of Cad96Ca (Cadherin 96Ca) #3, the screen gave mean ATP z-score -0.143. Ncc69 (sodium chloride cotransporter 69) #1 showed mean ATP z-score -0.281. Silencing of Ncc69 (sodium chloride cotransporter 69) #2 resulted in: mean ATP z-score -0.114.

After knock-down of amx (almondex) #1, the record shows mean ATP z-score -1.54 (active). Against amx (almondex) #2, the entry reads mean ATP z-score 1.66 (active). Depletion of TRAM #1 came out at: mean ATP z-score -0.18. For TRAM #2, the values are mean ATP z-score -0.32. Against 5-HT1A (5-hydroxytryptamine (serotonin) receptor 1A) #1, the entry reads mean ATP z-score -1.14. 5-HT1A (5-hydroxytryptamine (serotonin) receptor 1A) #2 gave mean ATP z-score 0.665.

With knock-down of PlexA (Plexin A), the screen gave mean ATP z-score 0.0946. For CG16904 #1, the values are mean ATP z-score -0.135. After knock-down of CG16904 #2 the results were mean ATP z-score 0.152. Knock-down of CG7627 came out at: mean ATP z-score 1.72 (active). Knock-down of CG34030 resulted in: mean ATP z-score 1.23. After knock-down of CG7309 #1 the results were mean ATP z-score -1.19.

For CG7309 #2, the values are mean ATP z-score 0.259. Knock-down of CG11566 (retired record) + stg1 #1 came out at: mean ATP z-score 0.555. CG11566 (retired record) + stg1 #2 scored mean ATP z-score 0.994. For Rh50, the entry reads mean ATP z-score 1.86 (active). After knock-down of CG2736 #1 the results were mean ATP z-score 0.994. After knock-down of CG2736 #2, the screen gave mean ATP z-score -0.487.

After knock-down of VhaM9.7-a (Vacuolar H[+] ATPase M9.7 subunit a) #1 the results were mean ATP z-score -0.103. For VhaM9.7-a (Vacuolar H[+] ATPase M9.7 subunit a) #2, the entry reads mean ATP z-score -0.303. For Ctl1 (Choline transporter-like 1) #1, the values are mean ATP z-score 0.453. Knock-down of Ctl1 (Choline transporter-like 1) #2 came out at: mean ATP z-score 1.29. After knock-down of CG33090 #1, the screen gave mean ATP z-score -0.358. With knock-down of CG33090 #2 the results were mean ATP z-score -0.604.

Knock-down of Ork1 (Open rectifier K[+] channel 1) #1 gave: mean ATP z-score -1.22. Ork1 (Open rectifier K[+] channel 1) #2 gave mean ATP z-score -0.968. spi (spitz) #1 showed mean ATP z-score -0.26. With knock-down of spi (spitz) #2, the screen gave mean ATP z-score -0.615. With knock-down of Scamp #1 the results were mean ATP z-score 0.235. Depletion of Scamp #2 resulted in: mean ATP z-score -0.349.
